This continues a long series; more values of the same kind are listed elsewhere.
Assays:
Format in all cases: cell-based
Details in all cases: U-87MG ATCC
[1] = Inhibition of RTK/PI3K/AKT/mTOR signaling in human U87 cells assessed as up regulation of HSPA9 gene expression at cytotoxic IC50 measured after 48 hrs relative to control
[2] = Inhibition of RTK/PI3K/AKT/mTOR signaling in human U87 cells assessed as up regulation of limb and CNS expressed 1 like gene expression at cytotoxic IC50 measured after 48 hrs relative to control
[3] = Inhibition of RTK/PI3K/AKT/mTOR signaling in human U87 cells assessed as down regulation of RASD1 gene expression at cytotoxic IC50 measured after 48 hrs relative to control
[4] = Inhibition of RTK/PI3K/AKT/mTOR signaling in human U87 cells assessed as down regulation of TRIM23 gene expression at cytotoxic IC50 measured after 48 hrs relative to control
[5] = Inhibition of RTK/PI3K/AKT/mTOR signaling in human U87 cells assessed as up regulation of protein tyrosine phosphatase, receptor type S gene expression at cytotoxic IC50 measured after 48 hrs relative to control
[6] = Inhibition of RTK/PI3K/AKT/mTOR signaling in human U87 cells assessed as down regulation of ATG4A gene expression at cytotoxic IC50 measured after 48 hrs relative to control
[7] = Inhibition of RTK/PI3K/AKT/mTOR signaling in human U87 cells assessed as down regulation of USP4 gene expression at cytotoxic IC50 measured after 48 hrs relative to control
[8] = Inhibition of RTK/PI3K/AKT/mTOR signaling in human U87 cells assessed as down regulation of DCP1A gene expression at cytotoxic IC50 measured after 48 hrs relative to control
[9] = Inhibition of RTK/PI3K/AKT/mTOR signaling in human U87 cells assessed as down regulation of OVOL1 gene expression at cytotoxic IC50 measured after 48 hrs relative to control
[10] = Inhibition of RTK/PI3K/AKT/mTOR signaling in human U87 cells assessed as up regulation of zinc finger and BTB domain containing 7A gene expression at cytotoxic IC50 measured after 48 hrs relative to control
[11] = Inhibition of RTK/PI3K/AKT/mTOR signaling in human U87 cells assessed as down regulation of TNFAIP3 gene expression at cytotoxic IC50 measured after 48 hrs relative to control
[12] = Inhibition of RTK/PI3K/AKT/mTOR signaling in human U87 cells assessed as down regulation of IK gene expression at cytotoxic IC50 measured after 48 hrs relative to control
[13] = Inhibition of RTK/PI3K/AKT/mTOR signaling in human U87 cells assessed as up regulation of myosin phosphatase Rho interacting protein gene expression at cytotoxic IC50 measured after 48 hrs relative to control
[14] = Inhibition of RTK/PI3K/AKT/mTOR signaling in human U87 cells assessed as up regulation of PHD finger protein 21A gene expression at cytotoxic IC50 measured after 48 hrs relative to control
[15] = Inhibition of RTK/PI3K/AKT/mTOR signaling in human U87 cells assessed as down regulation of NQO1 gene expression at cytotoxic IC50 measured after 48 hrs relative to control
[16] = Inhibition of RTK/PI3K/AKT/mTOR signaling in human U87 cells assessed as down regulation of HSP90AA1 gene expression at cytotoxic IC50 measured after 48 hrs relative to control
[17] = Inhibition of RTK/PI3K/AKT/mTOR signaling in human U87 cells assessed as up regulation of phosphofructokinase, liver type gene expression at cytotoxic IC50 measured after 48 hrs relative to control
[18] = Inhibition of RTK/PI3K/AKT/mTOR signaling in human U87 cells assessed as up regulation of forkhead box O4 gene expression at cytotoxic IC50 measured after 48 hrs relative to control
[19] = Inhibition of RTK/PI3K/AKT/mTOR signaling in human U87 cells assessed as up regulation of PFKFB4 gene expression at cytotoxic IC50 measured after 48 hrs relative to control
[20] = Inhibition of RTK/PI3K/AKT/mTOR signaling in human U87 cells assessed as down regulation of FAF1 gene expression at cytotoxic IC50 measured after 48 hrs relative to control
[21] = Inhibition of RTK/PI3K/AKT/mTOR signaling in human U87 cells assessed as down regulation of PAPOLG gene expression at cytotoxic IC50 measured after 48 hrs relative to control
[22] = Inhibition of RTK assessed as Inhibition of RTK/PI3K/AKT/mTOR signaling in human U87 cells assessed as down regulation of JUN gene expression at cytotoxic IC50 measured after 48 hrs relative to control
[23] = Inhibition of RTK/PI3K/AKT/mTOR signaling in human U87 cells assessed as down regulation of LINC01647 gene expression at cytotoxic IC50 measured after 48 hrs relative to control
[24] = Inhibition of RTK/PI3K/AKT/mTOR signaling in human U87 cells assessed as up regulation of DPP7 gene expression at cytotoxic IC50 measured after 48 hrs relative to control
[25] = Inhibition of RTK/PI3K/AKT/mTOR signaling in human U87 cells assessed as down regulation of MGEA5 gene expression at cytotoxic IC50 measured after 48 hrs relative to control
[26] = Inhibition of RTK/PI3K/AKT/mTOR signaling in human U87 cells assessed as down regulation of LOC105377348 gene expression at cytotoxic IC50 measured after 48 hrs relative to control
[27] = Inhibition of RTK/PI3K/AKT/mTOR signaling in human U87 cells assessed as down regulation of MAPKAPK2 gene expression at cytotoxic IC50 measured after 48 hrs relative to control
[28] = Inhibition of RTK/PI3K/AKT/mTOR signaling in human U87 cells assessed as down regulation of RUSC2 gene expression at cytotoxic IC50 measured after 48 hrs relative to control
[29] = Inhibition of RTK/PI3K/AKT/mTOR signaling in human U87 cells assessed as up regulation of egl-9 family hypoxia inducible factor 1 gene expression at cytotoxic IC50 measured after 48 hrs relative to control
[30] = Inhibition of RTK/PI3K/AKT/mTOR signaling in human U87 cells assessed as down regulation of PLEKHH1 gene expression at cytotoxic IC50 measured after 48 hrs relative to control
[31] = Inhibition of RTK/PI3K/AKT/mTOR signaling in human U87 cells assessed as up regulation of LEMD1 gene expression at cytotoxic IC50 measured after 48 hrs relative to control
[32] = Inhibition of RTK/PI3K/AKT/mTOR signaling in human U87 cells assessed as down regulation of SDSL gene expression at cytotoxic IC50 measured after 48 hrs relative to control

## CC(=O)C(=NNc1ccccc1C#N)C(C)=O
[1]
  log2FC: 0.435
[2]
  log2FC: 1.04
[3]
  log2FC: -2.9
[4]
  log2FC: -1.18
[5]
  log2FC: 0.658
[6]
  log2FC: -0.953
[7]
  log2FC: -0.921
[8]
  log2FC: -0.427
[9]
  log2FC: -1.39
[10]
  log2FC: 0.921
[11]
  log2FC: -1.15
[12]
  log2FC: -0.552
[13]
  log2FC: 1.14
[14]
  log2FC: 0.756
[15]
  log2FC: -0.495
[16]
  log2FC: -0.893
[17]
  log2FC: 0.717
[18]
  log2FC: 1.23
[19]
  log2FC: 2.75
[20]
  log2FC: -0.755
[21]
  log2FC: -0.701
[22]
  log2FC: -1.67
[23]
  log2FC: -6.64
[24]
  log2FC: 0.595
[25]
  log2FC: -0.858
[26]
  log2FC: -2.76
[27]
  log2FC: -0.635
[28]
  log2FC: -1.03
[29]
  log2FC: 1.32
[30]
  log2FC: -0.843
[31]
  log2FC: 3.14
[32]
  log2FC: -1.23

— ChEMBL document CHEMBL4316593 (Eur J Med Chem, 2019)
